Drawing on article PMC7819943, “Rice protein-binding microarrays: a tool to detect cis-acting elements near promoter regions in rice”, this text covers binding signal for 42 sequences.

The list shows a part of the results.

For this test, the target named is T1, OsSMF1 (Oryza sativa, UniProt Q6ZLB0 1-436).
T1 sequence: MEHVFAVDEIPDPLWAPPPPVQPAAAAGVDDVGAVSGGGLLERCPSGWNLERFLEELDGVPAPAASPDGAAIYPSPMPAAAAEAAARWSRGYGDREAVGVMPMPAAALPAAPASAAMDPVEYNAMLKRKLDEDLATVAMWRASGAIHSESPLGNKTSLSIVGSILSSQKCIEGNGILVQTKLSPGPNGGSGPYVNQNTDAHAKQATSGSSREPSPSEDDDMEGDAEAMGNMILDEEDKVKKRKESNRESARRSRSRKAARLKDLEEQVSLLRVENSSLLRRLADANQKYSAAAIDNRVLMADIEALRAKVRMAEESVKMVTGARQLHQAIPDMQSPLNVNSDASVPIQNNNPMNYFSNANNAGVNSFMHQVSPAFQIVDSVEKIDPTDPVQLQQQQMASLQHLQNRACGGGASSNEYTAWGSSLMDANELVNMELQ
Put plainly: protein-binding microarray (RPBM); PBS, 2% BSA, 51.3 ng/ul salmon testes DNA, 50 uM zinc acetate, 200 nM TF, 25 C, 1 h; high values mean tight binding. The following applies: protein: recombinant; tags: N-terminal polyhistidine and DsRed monomer fusion (pET32a); chain copies: 2; label: CyDye5-dUTP incorporated in the synthesized complementary strand; 3' TTTTT single-stranded linker to array surface; dsDNA, one strand shown. Put shortly:
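Polyhistidine-tagged DsRed fusions of transcription factors, joined at the N-terminus, were expressed in E. coli BL21-CodonPlus and isolated on Ni–NTA. They were incubated at 200 nM for 1 h at 25 °C on a custom Agilent array, double-stranded and BSA-blocked, in PBS with 2% BSA, salmon testes DNA and 50 µM zinc acetate. The binding signal is per-feature fluorescence intensity (arbitrary units) read on an Axon 4000B scanner after washing.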
Regarding “ACCACGGCAAACGAAGCCTCGCCTTTATGAAACGAGAGAACGGAGTCACCTAGTGCAG”, the binding signal is 3500 fluorescence intensity (a.u.).
As for “GAACTCTGCCATTGACACTTCAGCTGCAAATACTATTATGCGGAGTCACCTAGTGCAG”, the figure is 3770 fluorescence intensity (a.u.); as for “TCACGTGTTAGTTTACCTGTAGCTAACCATCATGGTCATGCGGAGTCACCTAGTGCAG”, 4320 fluorescence intensity (a.u.).
With “CCCTCTCCTGCTGTCATGCATGGCTGCATATATACAGGCTCGGAGTCACCTAGTGCAG”, the binding signal was 3360 fluorescence intensity (a.u.).
For the sequence “CATCGTCGTTATGCTCCACGTCACCGACGCCGGCTCTTCGCGGAGTCACCTAGTGCAG”, the binding signal was 33100 fluorescence intensity (a.u.).
As for “CATTATTGCAGACGGAACACATCATCACGACATCTCACTCCGGAGTCACCTAGTGCAG”, the figure is 5920 fluorescence intensity (a.u.); as for “ATAAGGACTAGGAGCGATGACCTTTGTTGTGTGCTTTGTTCGGAGTCACCTAGTGCAG”, 3310 fluorescence intensity (a.u.); as for “ACAACACTACAATATGTCCACGTATAAAACTATCCAATATCGGAGTCACCTAGTGCAG”, 4920 fluorescence intensity (a.u.).
The figure for “TTTGTACTCATTTTATTACAACATGAACAAACCCTTCTTTCGGAGTCACCTAGTGCAG” is 3500 fluorescence intensity (a.u.); for “CTTGCCTAACCCCACCACTCCACCGCATCACTACACGTGCCGGAGTCACCTAGTGCAG” it is 3490 fluorescence intensity (a.u.); for “ACACTATTTACGATTCTGCCACTCATCCCCGCCACGTGGCCGGAGTCACCTAGTGCAG” it is 13400 fluorescence intensity (a.u.).
Turning to “TCAGTCGGGAGAGGAAGAGTTTGATGGGCCGATGCCGCGGCGGAGTCACCTAGTGCAG”, the binding signal is 4030 fluorescence intensity (a.u.).
Turning to “AACCCGCTCCGCCACCACGAGCTCTCCGGCAAGCCAAGTCCGGAGTCACCTAGTGCAG”, the binding signal is 34300 fluorescence intensity (a.u.).
As for “TTTTAGTGGTAGACGACGTACCCATTAACAGTGAGGTGTTCGGAGTCACCTAGTGCAG”, the figure is 3140 fluorescence intensity (a.u.).
The figure for “TCCTGCTTGTATCCAAGTGTGCTGCCGTGGACGAGGCTACCGGAGTCACCTAGTGCAG” is 5540 fluorescence intensity (a.u.).
As for “AGACTTATTTTGGGTTTGGGTGCCCTTATGAGTCACTTGTCGGAGTCACCTAGTGCAG”, the figure is 6410 fluorescence intensity (a.u.).
Consider “CCTCGGGGAGGGCGTGGCAAGCGGCACGCGTGGCGGGGAGCGGAGTCACCTAGTGCAG”, for which the binding signal was 5890 fluorescence intensity (a.u.).
For the sequence “GTTTGGGGTTTCTTTCCTGCCTCGTGAGCTGACGCCGGTGCGGAGTCACCTAGTGCAG”, the binding signal is 4080 fluorescence intensity (a.u.).
Consider “ATAGCAGAGATAATACACATGACATGTTTCCCAGCTATATCGGAGTCACCTAGTGCAG”, for which the binding signal is 3140 fluorescence intensity (a.u.).
As for “TGGTTGAAAATCAAGATTCAGTTATAATATACCACATCAGCGGAGTCACCTAGTGCAG”, the figure is 5000 fluorescence intensity (a.u.); as for “GGGCCGTAAATCTTGTGTGTCACGACTCACGAGTAAACCGCGGAGTCACCTAGTGCAG”, 3640 fluorescence intensity (a.u.); as for “CTCTTGGTTGGGTGCCAACTGCCAATGACTTGACAAGTTGCGGAGTCACCTAGTGCAG”, 3410 fluorescence intensity (a.u.).
Regarding “ACGCAGGCGCACATCAGCCACGCGATAACCGAATCCGATGCGGAGTCACCTAGTGCAG”, the binding signal is 3350 fluorescence intensity (a.u.).
The figure for “ACCGGGCTGGTCGATCTGCCTCGTTGGCGGCCGGCCGCCGCGGAGTCACCTAGTGCAG” is 4410 fluorescence intensity (a.u.); for “ATGACATCAATGAAATGGTTAGGTAAGAAAATTATGTCCGCGGAGTCACCTAGTGCAG” it is 5310 fluorescence intensity (a.u.).
“CGCACCCACGCAGACGCAGGGAGGCGCACCATGTACTGAGCGGAGTCACCTAGTGCAG”: the binding signal is 21400 fluorescence intensity (a.u.).
Take “GAATCAGTAAATAAAGCGCTAGGTTTAATGATGTCATGGACGGAGTCACCTAGTGCAG”: the binding signal was 6840 fluorescence intensity (a.u.).
The figure for “TGTCATTTGCTGATTCATATTGCTATCTTATTTAGTTGGTCGGAGTCACCTAGTGCAG” is 5100 fluorescence intensity (a.u.); for “CGCTTGCTGATGATCTGTTCCACGGTGACCACGACTCGCTCGGAGTCACCTAGTGCAG” it is 3190 fluorescence intensity (a.u.); for “AACAATGCACACAGACATTGACATATCCATGGTCCAGGGACGGAGTCACCTAGTGCAG” it is 3430 fluorescence intensity (a.u.).
The figure for “GAGGAGCGAGGGTTTGCTGTTGATTTGGTCACAGTAACATCGGAGTCACCTAGTGCAG” is 21900 fluorescence intensity (a.u.).
The figure for “GCGACGTAAGCAGCCACGTTAGATAAAATCACCAAACCGCCGGAGTCACCTAGTGCAG” is 4450 fluorescence intensity (a.u.); for “GCGATGTTGTCGGCGTGGAAGCCACTGACGGCTTTCTCGGCGGAGTCACCTAGTGCAG” it is 3830 fluorescence intensity (a.u.).
As to “GTGTTTTGACGCATGCATGCCGTTGGTCATCAGTTAATCACGGAGTCACCTAGTGCAG”, the binding signal is 3480 fluorescence intensity (a.u.).
“CGGACTCGGAGACTTCGTCATGGAGCCCCTGCTGTTCTTGCGGAGTCACCTAGTGCAG”: the binding signal is 4030 fluorescence intensity (a.u.).
As for “CCGACCGTGCCGGCAAGAATGCGGCGGTGCACGCCTCCAACGGAGTCACCTAGTGCAG”, the figure is 3260 fluorescence intensity (a.u.); as for “TCTGTGTGATCCTAGCCGCTCCGCCGCCACTCACGGTTGTCGGAGTCACCTAGTGCAG”, 3860 fluorescence intensity (a.u.).
As for “GTAATTGACAACTGACAACCGACAGTTATTGACTCATTCCCGGAGTCACCTAGTGCAG”, the figure is 3340 fluorescence intensity (a.u.).
Take “TCCATCTCCGATCGGACGGTCGATCATCCATGTTACACTGCGGAGTCACCTAGTGCAG”: the binding signal is 3380 fluorescence intensity (a.u.).
The figure for “CGCGAAGGTTGACGCTGTTCCACGACCACCCGGTCCTGGGCGGAGTCACCTAGTGCAG” is 3240 fluorescence intensity (a.u.); for “GGAGGACTATCCTGAAAATGACATATACAGTACATCATGTCGGAGTCACCTAGTGCAG” it is 3240 fluorescence intensity (a.u.).
With “AGGTGGCATATTGACATCGTTAGCATTTTCCTGCAAATACCGGAGTCACCTAGTGCAG”, the binding signal is 3410 fluorescence intensity (a.u.).
